Results deposited as PubChem BioAssay AID1159578 (Peter MacCallum Cancer Centre, 2015).
Here is an unselected part of about 18,000 deposited reagents. Of all reagents, about 1,030 (5.7%) were called active. 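Inactive calls also include pools with fewer than 3300 nuclei, whose migration was not assessed.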 The raw values are shown without normalisation. A number with no mark means an inactive call. Reagents against one gene are numbered here. Not all columns of the deposit are shown.

- Screen: 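Knock-downs that alter how fast lymphatic endothelial cells migrate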 (primary screen)
- Cells: human lymphatic endothelial cells
- Knock-down reagent: siRNA pool against human genes, 40 nM
- Time to read-out: 48 h after transfection
- Detection: 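High-content imaging of dye-stained cells in a scratch assay measures filled wound area and nuclei per well; duplicate means given as ratio to mock and robust z-score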
- Reading the numbers: migration robust z-score: higher = faster migration into the scratch; nuclei per well: higher = more cells in the well
- Rule for the call: 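Pools averaging fewer than 3300 nuclei are never called; remaining pools count as changed when migration robust z lies outside -2 to 2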
- Calls: active = migration changed; inactive = no migration change, or too few cells

LCE5A
- migration robust z-score: 0.52
- migration class with cell-count check: migration z between -2 and 2; enough cells
- nuclei per well, duplicate mean: 5369

FAM13A
- migration robust z-score: -1.22
- migration class with cell-count check: migration z between -2 and 2; enough cells
- nuclei per well, duplicate mean: 3449

TTYH1
- migration robust z-score: -0.5
- migration class with cell-count check: migration z between -2 and 2; enough cells
- nuclei per well, duplicate mean: 5278

EGFL7
- migration robust z-score: -1.21
- migration class with cell-count check: migration z between -2 and 2; enough cells
- nuclei per well, duplicate mean: 4440

ZC3H15
- migration robust z-score: 0.11
- migration class with cell-count check: migration z between -2 and 2; enough cells
- nuclei per well, duplicate mean: 6143

ZNF790
- migration robust z-score: -0.84
- migration class with cell-count check: migration z between -2 and 2; enough cells
- nuclei per well, duplicate mean: 7008

RPL31
- migration robust z-score: -1.64
- migration class with cell-count check: migration z between -2 and 2; enough cells
- nuclei per well, duplicate mean: 5615

RAMP1
- migration robust z-score: 2.02 (active)
- migration class with cell-count check: migration z above 2; enough cells
- nuclei per well, duplicate mean: 5692

UGT1A1
- migration robust z-score: 0.13
- migration class with cell-count check: migration z between -2 and 2; enough cells
- nuclei per well, duplicate mean: 4236

PHF10
- migration robust z-score: -0.65
- migration class with cell-count check: migration z between -2 and 2; enough cells
- nuclei per well, duplicate mean: 5652

Part of the list above in another layout:
EGFL7 | migration robust z-score: -1.21; migration class with cell-count check: migration z between -2 and 2; enough cells; nuclei per well, duplicate mean: 4440
ZC3H15 | migration robust z-score: 0.11; migration class with cell-count check: migration z between -2 and 2; enough cells; nuclei per well, duplicate mean: 6143
ZNF790 | migration robust z-score: -0.84; migration class with cell-count check: migration z between -2 and 2; enough cells; nuclei per well, duplicate mean: 7008

Next records:
ADAM30
- migration robust z-score: -1.06
- migration class with cell-count check: migration z between -2 and 2; enough cells
- nuclei per well, duplicate mean: 5539

THAP5
- migration robust z-score: 0.4
- migration class with cell-count check: migration z between -2 and 2; enough cells
- nuclei per well, duplicate mean: 5353

BMPR1B
- migration robust z-score: -0.57
- migration class with cell-count check: migration z between -2 and 2; enough cells
- nuclei per well, duplicate mean: 5174

GCH1
- migration robust z-score: 0.99
- migration class with cell-count check: migration z between -2 and 2; enough cells
- nuclei per well, duplicate mean: 5586

OPA1
- migration robust z-score: -0.88
- migration class with cell-count check: migration z between -2 and 2; enough cells
- nuclei per well, duplicate mean: 4491

MBNL1
- migration robust z-score: 0.62
- migration class with cell-count check: migration z between -2 and 2; enough cells
- nuclei per well, duplicate mean: 5923

INTS9
- migration robust z-score: 0.07
- migration class with cell-count check: migration z between -2 and 2; enough cells
- nuclei per well, duplicate mean: 5360

TOR2A
- migration robust z-score: -0.92
- migration class with cell-count check: migration z between -2 and 2; enough cells
- nuclei per well, duplicate mean: 5517

FBXO25
- migration robust z-score: -0.6
- migration class with cell-count check: migration z between -2 and 2; enough cells
- nuclei per well, duplicate mean: 5417

RCC1 #1
- migration robust z-score: 0.7
- migration class with cell-count check: migration z between -2 and 2; enough cells
- nuclei per well, duplicate mean: 5118

RCC1 #2
- migration robust z-score: 0.44
- migration class with cell-count check: migration z between -2 and 2; enough cells
- nuclei per well, duplicate mean: 6311
